# PubChem BioAssay AID2685 (National Center for Advancing Translational Sciences (NCATS), 2010)
# This is one part of the list. These are further read-outs of the screen, such as a control signal, another cell line or another target. No call is given for them. Most of these compounds were active or inconclusive in the main read-out, so they are no random draw. Words in brackets tell the shape of the fitted curve; partial curves, single points and poor fits give uncertain potencies.
# Experiment: qHTS Assay for Lipid Storage Modulators in Drosophila S3 Cells;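 as to cell number change: cells counted by Cell Tracker Red CMTPX staining in the red channel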
# Settings: BODIPY lipid droplet fluorescence, 18-24 h; for cell number change: measured here: cell count max response, cells fed with added oleic acid
# Summary of the method: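 Drosophila S3 cells loaded with oleic acid (400 uM, as added) and compounds at several concentrations; lipid droplets imaged by 488-nm laser-scanning cytometry, 500–530 nm intensity and object ratio to cell channel. Percent activity normalized to 20 uM Triacsin C.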
# [1] = measured here: cell number channel AC50, cells fed with added oleic acid
# [2] = measured here: lipid fluorescence (Fed channel) AC50, cells fed with added oleic acid
SMILES,cell number change [%],AC50 [1],AC50 [2]
CCOC(=O)c1c(NC(=O)CSc2nnc(CNc3ccc(F)cc3)o2)sc(C)c1C,15.7,"0.0461 µM [rising, full curve, poor fit]",–
Cc1cnc(C(=O)Nc2ccc3c(c2)CCC3)cn1,29.7,–,"11.6 µM [rising, partial curve]"
COc1ccc(N)c2c1OCCC2=O,-48.8,"29.1 µM [falling, single point]","29.1 µM [falling, single point]"
CCCn1cc(S(=O)(=O)c2ccc(Cl)cc2)c(=O)c2cc(OC)ccc21,-15.9,–,–
CC(=O)c1ccc(NC(=S)NCc2ccc(Cl)cc2Cl)cc1,13,"1.84 µM [rising, partial curve]",–
Cc1ccc(N(C)C(=O)N2CCN(S(=O)(=O)c3c(C)cc(C)cc3C)CC2)cc1,–,–,"0.82 µM [falling, single point]"
CC(C)c1ccc(CNc2nc3nc4c(c(=O)n3[nH]2)CCC4)cc1,-49.4,"13 µM [falling, partial curve, poor fit]","0.00461 µM [falling, full curve, poor fit]"
O=S(=O)(/N=S1/CC=CCN1S(=O)(=O)c1ccccc1)c1ccccc1 (configuration not stated),-101,–,–
Cn1c(CCCCCN)nc2ccccc21,13.3,–,–
COc1ccc(-n2c(Cc3cc(=O)[nH]c(=O)[nH]3)nnc2SCC(=O)Nc2cc(C(F)(F)F)ccc2Cl)cc1,9.91,"0.731 µM [falling, single point]","0.731 µM [falling, single point]"
CC(=O)c1ccc(NCCC(=O)c2ccccc2)cc1,–,"0.103 µM [rising, full curve, poor fit]","1.64 µM [rising, partial curve]"
CC1=CC(=O)C=C(C)C1=NOc1ccccc1[N+](=O)[O-],1.03,–,"3.66 µM [falling, partial curve, poor fit]"
COc1cc(/C=N/NC(=S)NCC2CCCO2)cc(OC)c1OC (configuration not stated),12.6,–,"3.66 µM [rising, full curve, poor fit]"
CCNC(=O)c1cc2c(=O)n3cccc(C)c3nc2n(Cc2ccc(C)cc2)c1=N,15.2,–,"1.46 µM [rising, partial curve]"
CC1CC1C(=O)Nc1ccc(-c2ccccc2)cc1 (configuration not stated),0.912,–,–
O=C(Nc1nnc(SCc2cccc(F)c2)s1)c1ccco1,27.3,"0.82 µM [rising, full curve, poor fit]","23.1 µM [rising, partial curve, poor fit]"
CN(CC1CCN(CCc2cccc(C(F)(F)F)c2)CC1)C(=O)c1ccc(F)cc1F,9.59,–,–
Cc1c(C=O)c2ccccn2c1C(=O)c1cccc([N+](=O)[O-])c1,-17.2,–,"0.146 µM [rising, full curve, poor fit]"
O=C(/C=C/c1ccccc1)NC(NC(=S)Nc1cccc(Cl)c1)C(Cl)(Cl)Cl (configuration not stated),-7.96,–,"29.1 µM [falling, single point]"

SMILES,cell number change [%],AC50 [1],AC50 [2]
Cc1ccccc1N(C(=O)CNC(=O)c1ccco1)C(C(=O)NC1CCCCC1)c1cccnc1 (configuration not stated),3.91,–,"0.58 µM [rising, single point]"
O=C(CN(C(=O)CCC(=O)Nc1nccs1)c1ccc2c(c1)OCO2)NCc1ccc(F)cc1,52.1,"32.6 µM [rising, single point]",–
CCN(CC)S(=O)(=O)c1ccc(Oc2ccc(S(=O)(=O)N(CC)CC)cc2)cc1,-13.6,–,"4.11 µM [rising, partial curve]"
NNC(=O)c1nc(-c2ccccc2)cc(-c2ccccc2)n1,-5.67,–,–
O=C(Cn1cccc1)Nc1ccc(F)cc1F,-31.9,–,–
CCC(=O)c1cn(/C(=C\C(=O)OC(C)(C)C)CCC(OC)OC)cc1CC,-14.9,"0.164 µM [falling, full curve, poor fit]","0.146 µM [falling, full curve, poor fit]"
CC(C)(C)c1cc(-c2nc(N)nc(N)n2)c(O)c(C(C)(C)C)c1,-87.9,"9.2 µM [falling, partial curve]","7.31 µM [falling, full curve, poor fit]"
Cc1cc(C)c[n+](CC(=O)c2cc3ccccc3oc2=O)c1,-26.2,–,–
CCn1c([N+](=O)[O-])nc2c1c(=O)[nH]c(=O)n2C,-50.4,"0.58 µM [falling, full curve]","5.8 µM [falling, full curve]"
N#CC1=C(N)NC(SCc2ccccc2)=C(C#N)C12CCCC2,31.1,"0.366 µM [rising, partial curve]","4.61 µM [rising, partial curve, poor fit]"
COc1ccc(CCNc2ncnc3c2[nH]c2cc(OC)c(OC)cc23)cc1OC,-43.2,"13 µM [falling, partial curve, poor fit]","25.9 µM [falling, partial curve]"
CCCc1nc2ccccc2c(C(=O)OC(C)C(=O)NCc2ccc3c(c2)OCO3)c1CC (configuration not stated),81.7,"0.058 µM [rising, full curve, poor fit]","29.1 µM [rising, single point]"
COc1ccc(CCNC(=O)Cc2ccc([N+](=O)[O-])cc2)cc1OC,-30.6,"25.9 µM [falling, single point]","32.6 µM [falling, single point]"
COC(=O)Cn1c(=NC(=O)C(C)C)sc2c(C)cc(C)cc21,4.85,–,"0.00517 µM [rising, full curve, poor fit]"
COc1ccc2c(c1)CC/C2=N\NC(=O)c1ccccc1,15.9,–,"2.91 µM [rising, partial curve]"
COc1cc(C(=O)NCc2ccccn2)ccc1OCc1c(C)noc1C,176,"16.4 µM [rising, partial curve]","0.651 µM [rising, single point]"
O=C(CNC(=O)c1ccco1)OCc1ccc(Br)cc1,31.4,–,–
Cn1c(C2CC(=O)N(Cc3ccccc3)C2)nc2ccccc21 (configuration not stated),0.368,"0.731 µM [falling, full curve, poor fit]","25.9 µM [falling, single point]"

# A second format for some results above.
SMILES	cell number change [%]	AC50 [1]	AC50 [2]
Cc1cc(C)c[n+](CC(=O)c2cc3ccccc3oc2=O)c1	-26.2	–	–
CCn1c([N+](=O)[O-])nc2c1c(=O)[nH]c(=O)n2C	-50.4	0.58 µM [falling, full curve]	5.8 µM [falling, full curve]
N#CC1=C(N)NC(SCc2ccccc2)=C(C#N)C12CCCC2	31.1	0.366 µM [rising, partial curve]	4.61 µM [rising, partial curve, poor fit]
COc1ccc(CCNc2ncnc3c2[nH]c2cc(OC)c(OC)cc23)cc1OC	-43.2	13 µM [falling, partial curve, poor fit]	25.9 µM [falling, partial curve]
CCCc1nc2ccccc2c(C(=O)OC(C)C(=O)NCc2ccc3c(c2)OCO3)c1CC (configuration not stated)	81.7	0.058 µM [rising, full curve, poor fit]	29.1 µM [rising, single point]
COc1ccc(CCNC(=O)Cc2ccc([N+](=O)[O-])cc2)cc1OC	-30.6	25.9 µM [falling, single point]	32.6 µM [falling, single point]
COC(=O)Cn1c(=NC(=O)C(C)C)sc2c(C)cc(C)cc21	4.85	–	0.00517 µM [rising, full curve, poor fit]
COc1ccc2c(c1)CC/C2=N\NC(=O)c1ccccc1	15.9	–	2.91 µM [rising, partial curve]
COc1cc(C(=O)NCc2ccccn2)ccc1OCc1c(C)noc1C	176	16.4 µM [rising, partial curve]	0.651 µM [rising, single point]
O=C(CNC(=O)c1ccco1)OCc1ccc(Br)cc1	31.4	–	–
